According to paper PMC12040169 (PLOS Biology, 2025):
Some of the results follow.

These compounds were tested on T1, CTL2-GFP (C. trachomatis L2/434/Bu, GFP-expressing). Conditions: bulk GFP, single well; 28.5 h, 10 µM; inhibitor.
T1 construct: L2/434/Bu, GFP-expressing
Set-up: species or system HeLa; Intracellular C. trachomatis growth in HeLa cells, bulk GFP fluorescence relative to DMSO

Point of comparison: `CC(c1ccccc1)c1nc2cnccn2c1NC(C)(C)C` (centres unmarked) [CBK283533], “% of control remaining” value 110.074%. Against it:
- C[C@@H](c1ccccc1)n1c(=O)[nH]c2ncc(-c3ccco3)nc21 [CBK064168] — higher, 158.507%
- O=C(O)c1cc(S(=O)(=O)Nc2ccc3cc(Br)cnc3n2)c(F)cc1Cl [CBK073898] — higher, 118.236%
- Cc1ccc(C(=O)N[C@@H]2C[C@H](C)CC[C@H]2C(C)C)cc1C [CBK085823] — lower, 94.9035%
- Nc1cccc2c(OCCO)cccc12 [CBK001976C] — lower, 17.4482%
- Cc1cc(Br)ccc1NC(=O)c1cnc2sccn2c1=O [CBK246520] — lower, 108.351%
- CC[C@H]1CN(C(=O)c2ccnc(Cl)c2)CC[C@H]1CC(=O)O [CBK289139] — higher, 139.528%
- CCOCC(=O)N(C)C1CCN(c2ncnc3ccccc23)CC1 [CBK306247] — higher, 113.555%
- COc1ccc(C2CC(Cn3cc(C(C)=O)c(=O)[nH]c3=O)ON2C)cc1 (centres unmarked) [CBK019386] — lower, 90.4302%
- COc1ccc(CNC(=O)C2CCCN(c3nc4c(-c5ccccc5)csc4c(=O)[nH]3)C2)cc1 (centres unmarked) [CBK215464] — higher, 140.379%
- Cc1c(C(=O)O)sc2nc(C=Cc3cc([N+](=O)[O-])ccc3Cl)[nH]c(=O)c12 [CBK295613] — higher, 128.06%
- O=C(Cc1ccccc1)Nc1ccc2[nH]ncc2c1 [CBK288211] — lower, 108.755%
- Cc1nn(CC(=O)NC(C)(C)C)c(=O)c2cc3ccsc3n12 [CBK284082] — higher, 118.399%
- O=C(CCNCCc1c[nH]c(=O)[nH]c1=O)Nc1cccc(Cl)c1 [CBK306889] — higher, 125.04%
- COc1ccccc1N(CC(=O)NC(C(C)C)C(C)C)S(=O)(=O)c1ccccc1 [CBK101384] — lower, 103.422%
- O=C(c1ccccn1)N1CCN(CCc2ccccc2)CC1 [CBK200201] — higher, 138.122%
- O=C(CCN1C(=O)/C(=C/c2ccc(F)cc2)SC1=S)NNC(=O)c1ccncc1 [CBK262821] — higher, 121.536%
- CC(=O)Nc1ccc(-c2cncc(NC(C)CCCC(C)(C)O)n2)cc1 (centres unmarked) [CBK065894] — higher, 162.198%
- COc1ccc(C(=O)N2CCC3(CCCN(CCc4c[nH]c5ccccc45)C3)C2)cc1OC (centres unmarked) [CBK137143] — higher, 116.581%
- COc1cccc(/C=C(/C#N)c2ccc(Cl)cc2)c1OCc1cccc(C(=O)O)c1 [CBK266721] — higher, 139.835%
- O=C(c1ccccc1)c1cccc(OCCOc2nccnc2N2CCNCC2)c1 [CBK014250G] — lower, 102.466%
- c1ccc2nc(N3CCCC3)c(OC3CCOC3)nc2c1 (centres unmarked) [CBK115769] — higher, 110.725%
- O=C(C1CN(Cc2nc3ccsc3c(=O)[nH]2)c2ccccc2O1)N1CCOCC1 (centres unmarked) [CBK295189] — higher, 144.933%
- O=C(CCCc1ccccc1)Nc1ccccc1C(=O)O [CBK265516] — lower, 100%
- COc1ccccc1-c1ccc(CC2(C(=O)NCCc3ccc(F)cc3)CCOCC2)cc1 [CBK286520] — lower, 63.6414%
- O=C(c1ccco1)N1CCN(c2ccc(-c3cccc(Cl)c3Cl)cn2)CC1 [CBK037737] — higher, 130.359%
- CCN1CCCC1CNS(=O)(=O)c1cc(C(N)=O)ccc1OC (centres unmarked) [CBK267815] — lower, 82.1902%
- O=C(NC1CC1)C1(Cc2ccccc2-c2cccnc2)CCOCC1 [CBK285222] — higher, 120.227%
- COc1ccc(OC)c(N(CC(=O)N2CCN(C)CC2)S(=O)(=O)c2ccccc2)c1 [CBK264131] — lower, 100%
- CCCc1cc(C(=O)NC2CCN(Cc3cccc(F)c3)CC2)[nH]n1 [CBK282465] — higher, 133.203%
- O=C(c1cccc(-c2nnc(-c3ccccc3)o2)c1)N1CCN(C(=O)c2ccco2)CC1 [CBK269809] — higher, 139.133%
- COc1ccc2[nH]c(=O)c(CNc3ccc4c(c3)-c3ccccc3S(=O)(=O)N4)cc2c1 [CBK286409] — higher, 139.349%
- CCOc1ccc(CNc2ccc(N3CCOCC3)c(C(=O)O)c2)cc1OC [CBK269192] — higher, 150.438%
- CS(=O)(=O)N(CC(=O)Nc1ccccc1C(=O)N1CCOCC1)c1ccc(F)c(Cl)c1 [CBK267931] — lower, 105.114%
- c1cncc(COc2cc(N3CCCC3)ncn2)c1 [CBK115894] — lower, 100%
- CCCOC(=O)c1c(NC(=O)c2cc(-c3ccccc3)nc3ccccc23)sc2c1CCC(C)C2 (centres unmarked) [CBK262647] — lower, 100%
- OCC1CCCN1c1cncc(-c2ccc(F)cc2F)n1 (centres unmarked) [CBK065891] — lower, 108.947%
- CCN1C(=O)N(CC)C2C1NC(=O)N2CCCC(=O)O (centres unmarked) [CBK287131] — higher, 135.055%
- Cc1nc(C)n(CC2CCCN(c3ncnc4ccsc34)C2)n1 (centres unmarked) [CBK304037] — higher, 131.177%
- COC(=O)c1c(NC(=S)Nc2ccccc2)sc(Cc2ccccc2)c1C [CBK263501] — lower, 109.105%
- COc1ccc(-c2ccc3c(c2)C(=O)N2CC[C@H](NC(=O)CCC(=O)O)[C@H]2C(=O)N3)cc1 [CBK289331] — higher, 136.048%
- O=C(O)CCCNS(=O)(=O)c1ccc(I)cc1 [CBK269160] — higher, 131.806%
- O=C(c1cc(Cl)c[nH]1)N1CCN(Cc2cc(=O)n3ccsc3n2)CC1 [CBK306313] — lower, 102.158%
- CS(=O)(=O)c1ccc(Nc2ncnc(N3CCC(Sc4ccccc4)CC3)c2[N+](=O)[O-])cc1 [CBK113567] — higher, 127.389%
- O=C(Nc1ccc(Cc2ccncc2)cc1)c1sc2c([N+](=O)[O-])cccc2c1Cl [CBK269635] — lower, 102.914%
- Nc1nc(OCCc2cccs2)cnc1-c1ccc(OC(F)(F)F)cc1 [CBK145116] — higher, 111.596%
- Oc1cccc(OCCOc2cc(C(F)(F)F)ccn2)c1 [CBK115788] — higher, 113.008%
- O=C(CN1C2CCC1CC(O)(c1ccco1)C2)N1CCCC1 (centres unmarked) [CBK284042] — higher, 137.953%
- c1cn2cnnc2c(N2CCc3sccc3C2)n1 [CBK305180] — lower, 88.3306%
- Cn1c(=O)oc2cc(S(=O)(=O)Nc3cccc(CCc4ccccn4)c3)ccc21 [CBK286357] — lower, 98.1968%
- COC(=O)CCc1ccc(S(=O)(=O)N2CCN(Cc3cccc4cccnc34)CC2)cc1 [CBK062969] — lower, 108.004%
- COCCNC(=O)c1ccc(-c2cc(C)cs2)nc1NCC1CC1 [CBK106259] — lower, 109.771%
- O=C(C1=C(O)C(=O)N(Cc2cccnc2)C1c1ccc(Cl)cc1Cl)c1ccccc1 (centres unmarked) [CBK263367] — lower, 107.402%
- OCC[C@H]1CN2CCCC2CN1Cc1cccn1-c1cccc(F)c1 (some centres unmarked) [CBK282985] — higher, 137.463%
- COc1ccc2cc3c(nc2c1)OC(=O)N(CC1CC1)C3 [CBK282432] — lower, 2.794%
- Cc1ccc(CC(=O)N2CCC(c3ncc(C(=O)Nc4ccc(F)cc4)c(C)n3)CC2)cc1 [CBK285884] — lower, 98.9212%
- O=C(C1CCCCC1)N1CCC(c2nnc(-c3ccsc3)o2)CC1 [CBK283380] — higher, 134.858%
- OCCC1CCCCN1c1cncc(-c2cccs2)n1 (centres unmarked) [CBK065758] — higher, 111.768%
- O=C(O)CNC(=O)/C(=C\c1ccc(F)cc1)NC(=O)c1ccco1 [CBK263718] — higher, 122.62%
- NC(=O)c1c(NC(=O)CCN2C(=O)c3cccc([N+](=O)[O-])c3C2=O)sc2c1CCCC2 [CBK263132] — lower, 97.3828%
- CC(=O)Nc1cccc(-c2cnc(NCc3ccc4c(c3)OCO4)c(C(=O)NCC3COc4ccccc4O3)c2)c1 (centres unmarked) [CBK138473T] — lower, 84.7296%
- CN(CC(=O)N1CCCCCC1)S(=O)(=O)c1cc(Cl)ccc1Cl [CBK091841] — lower, 105.103%
- O=C(NC1CCCCC1)N[C@H]1CO[C@H]2[C@@H]1OC[C@@H]2n1cc(-c2ccccc2)nn1 [CBK289505] — higher, 132.215%
- Cc1[nH]nc(Nc2ccc(I)cc2)c1[N+](=O)[O-] [CBK262748] — higher, 115.821%
- O=C(Nc1nnn[nH]1)C1(c2ccc([N+](=O)[O-])cc2)CCCC1 [CBK267237] — higher, 151.8%
- COCC1(C(=O)N2CC(=O)N(c3ccc(Cl)cc3)CC2C)CCC1 (centres unmarked) [CBK306674] — higher, 110.857%
- N#CCCCN1CCCN(c2nccc(OCC3COc4ccccc4O3)n2)CC1 (centres unmarked) [CBK083977] — lower, 109.645%
- CCn1nc(NC(=O)CCn2c(C(F)F)cc3cccnc32)cc1C [CBK285072] — higher, 125.548%
- c1ncc(N2CCCC2)nc1OCCN1CCOCC1 [CBK113430] — higher, 159.091%
- O=C(Nc1cccc(O)c1)c1ccc(NC(=O)C2CCCO2)cc1 (centres unmarked) [CBK269746] — higher, 129.953%
- Cc1ccc(Cc2cnc(NC(=O)NCCN3CCOCC3)s2)cc1F [CBK305449] — lower, 107.698%
- Cc1ccc2nc(-c3ccc(N4C(=O)CC(N5CCN(CCOCCO)CC5)C4=O)cc3)sc2c1 (centres unmarked) [CBK265362] — lower, 106.856%
- COc1cc(C2c3c(-c4cc(C)c(C)cc4O)n[nH]c3C(=O)N2CCO)cc(Br)c1O (centres unmarked) [CBK269009] — lower, 81.7753%
- COCc1ccsc1C(=O)Nc1ncn(CC(=O)N2CCCCCC2)n1 [CBK304160] — higher, 119.688%
- CCCC/C=C/c1cncc(N2CCCC2CO)n1 (centres unmarked) [CBK065402] — higher, 169.276%
- Cc1nc(C2CCN(C(=O)c3ccn(C)n3)CC2)c2sccn12 [CBK285202] — lower, 101.372%
- CCN1CCN(Cc2cnc(-c3ccccn3)nc2)CC1=O [CBK306678] — lower, 98.9535%
